These are yes or no findings as the source states them, for the method shown. Some results given as binding are weak or reduced against the parent protein; the word gives no strength. Where a sequence is shown, tags or fusion partners need not be part of it.
What was measured:
[1] = target: mammalian cell expressed recombinant CEACAM6 (Homo sapiens (Human)) (UniProt P40199); assay: Western blot on mammalian-expressed recombinant CEACAM6
[2] = target: recombinant CEACAM6 N-terminal domain (expressed in E. coli) (Homo sapiens (Human)) (UniProt P40199); assay: ELISA on coated CEACAM6 N-domain after 24 hr in mouse serum at 37° C.
[3] = target: recombinant CEACAM6 N-terminal domain (expressed in E. coli) (Homo sapiens (Human)) (UniProt P40199); assay: SPR (Biacore 3000), CEACAM6 immobilised on CM5, ovalbumin reference
[4] = target: recombinant CEACAM6 N-terminal domain (expressed in E. coli) (Homo sapiens (Human)) (UniProt P40199); assay: phage ELISA, phage-displayed 2A3 on coated CEACAM6

By UniProt entry, the sequences of proteins in these tests, tags left out. Where a name states a change or a piece, a line headed by the entry shows the natural chain unless it says otherwise.
UniProt P40199: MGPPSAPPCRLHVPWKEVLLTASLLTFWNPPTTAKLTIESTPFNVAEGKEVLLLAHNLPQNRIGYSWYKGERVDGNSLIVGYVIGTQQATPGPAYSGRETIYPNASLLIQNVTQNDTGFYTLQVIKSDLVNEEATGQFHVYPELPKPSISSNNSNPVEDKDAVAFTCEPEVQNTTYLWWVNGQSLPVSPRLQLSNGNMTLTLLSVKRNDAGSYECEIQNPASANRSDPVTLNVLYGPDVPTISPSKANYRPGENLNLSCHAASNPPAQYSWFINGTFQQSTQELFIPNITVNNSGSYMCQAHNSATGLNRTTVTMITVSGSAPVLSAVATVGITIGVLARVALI

- binding [1]: binds
- binding [2]: binds
- binding [3]: binds
- binding [4]: binds
B1: sdAb 2A3 (engineered, with c-myc and His tags) (VHH)
VHH: QVKLEESGGGLVQAGGSLRLSCRTSGRTNSVYTMGWFRQAPGKEREFVAQIMWGAGTNTHYADSVKGRFTISRDSAESTVYLQMNSLKPEDTAVYYCAANRGIPIAGRQYDYWGQGTQVTVSS
modifications: FITC-labelled in the staining and flow cytometry assays
notes: Llama VHH expressed in the E. coli periplasm and purified by IMAC; monomer by size exclusion; also called 2A3 sdAb; FITC-2A3

Reference: patent publication US20130272958A1 (NATIONAL RESEARCH COUNCIL OF CANADA, published 2013)
